PubChem BioAssay AID1259308, NCATS, 2017
In all, the deposit lists about 59,000 reagents; below is a random part of them. Of all reagents, about 1,510 (2.6%) are marked active. 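Calls use total luciferase alone and ignore viability, so some active siRNAs may act by altering cell number.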 Not all columns of the deposit are shown.

Screen: 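Candidate targets for better recombinant protein yield in mammalian cells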 (primary screen)
System: human HEK293 embryonic kidney cells stably expressing firefly luciferase (HEK-CMV-Luc2-Hygro)
Reagent: single siRNA against human genes, 0.8 pmol siRNA per well
Time to read-out: 72 h
Detection: 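Reporter luminescence and viable-cell signal on separate replicate plates, given as percent of non-targeting control and median/MAD z-scores, plus per-cell luciferase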
Direction: total luciferase, z-score: higher = more reporter protein produced
Rule for the call: 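An siRNA counts as active if its total luciferase robust z-score exceeds 3; genes with two or more such siRNAs out of three were retested with fresh siRNAs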
Meaning of the calls: active = raised luciferase; inactive = no rise

Which result is listed for GPR156 [SID160760183]?
total luciferase, z-score: -0.447; activity call: inactive

For GPR156 [SID160760184], what was measured?
total luciferase, z-score: 1.39; activity call: inactive

How did the screen score GPR156 [SID160760185]?
total luciferase, z-score: 0.0766; activity call: inactive

What did the screen give for CARD8 [SID160733004]?
total luciferase, z-score: 1.49; activity call: inactive

How did the screen score CARD8 [SID160733012]?
total luciferase, z-score: 0.0463; activity call: inactive

For CARD8 [SID160733022], what does the deposit list?
total luciferase, z-score: -0.354; activity call: inactive

What did the screen give for PRKAG1 [SID160714913]?
total luciferase, z-score: -0.549; activity call: inactive

For PRKAG1 [SID160714914], how do the results read?
total luciferase, z-score: -0.7; activity call: inactive

How did the screen score PRKAG1 [SID160714915]?
total luciferase, z-score: 0.835; activity call: inactive

With UBE2M [SID160721323], what does the deposit list?
total luciferase, z-score: -0.141; activity call: inactive

What did the screen give for UBE2M [SID160721325]?
total luciferase, z-score: 0.0829; activity call: inactive

Which result is listed for UBE2M [SID160732128]?
total luciferase, z-score: -0.474; activity call: inactive
